According to publication PMC5645313:
These are yes or no findings as the source states them, for the method shown. A result given as binding can be weak or reduced; the word gives no strength.

Biological target: T1, biotin-GID1A (biotinylated GA receptor GID1A) (Arabidopsis thaliana) (UniProt Q9MAA7)
T1 sequence (chain, biotin (added by BirA during cell-free synthesis)): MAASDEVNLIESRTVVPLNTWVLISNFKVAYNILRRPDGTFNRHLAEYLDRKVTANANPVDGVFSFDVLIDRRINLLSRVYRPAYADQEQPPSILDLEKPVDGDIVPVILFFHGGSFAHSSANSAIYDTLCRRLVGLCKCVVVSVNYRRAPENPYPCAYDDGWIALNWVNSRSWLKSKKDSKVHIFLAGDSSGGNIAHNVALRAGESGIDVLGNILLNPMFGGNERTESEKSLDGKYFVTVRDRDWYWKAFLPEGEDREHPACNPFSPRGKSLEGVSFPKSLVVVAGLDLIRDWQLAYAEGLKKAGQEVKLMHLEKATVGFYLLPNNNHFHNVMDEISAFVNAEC
Assay: AlphaScreen or HTRF; screen of 204 FLAG-tagged Arabidopsis RING-type E3 ligases against biotinylated GID1A; 1 µl of each wheat cell-free product in 15 µl AlphaScreen buffer (100 mM Tris-HCl pH 8.0, 0.1% Tween20, 1 mg/ml BSA), 25 °C, 1 h; streptavidin donor beads, anti-FLAG M2 antibody with Protein A acceptor beads; background controlled with E. coli DHFR

“FLAG-at1g47570 (RING-type E3 ubiquitin ligase) (Arabidopsis thaliana) (enzyme)” was tested, and the binding was “binds”.
